Measured values published in PMC7819943, “Rice protein-binding microarrays: a tool to detect cis-acting elements near promoter regions in rice”.
The other results are listed elsewhere or left out.

The chains behind the UniProt entries cited, without tags or fusion partners.
UniProt Q0JBA9, entry or part of it: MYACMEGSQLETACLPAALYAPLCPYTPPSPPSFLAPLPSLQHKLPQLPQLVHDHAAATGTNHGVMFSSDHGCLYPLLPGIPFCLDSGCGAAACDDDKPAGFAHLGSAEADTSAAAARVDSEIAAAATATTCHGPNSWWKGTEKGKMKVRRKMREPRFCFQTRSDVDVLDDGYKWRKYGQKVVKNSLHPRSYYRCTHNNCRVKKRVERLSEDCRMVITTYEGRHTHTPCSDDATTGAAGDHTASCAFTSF

Target: OsWRKY34 (Oryza sativa, UniProt Q0JBA9 1-250)
Test: protein-binding microarray (RPBM); PBS, 2% BSA, 51.3 ng/ul salmon testes DNA, 50 uM zinc acetate, 200 nM TF, 25 C, 1 h; high values mean tight binding
Conditions: protein: recombinant; tags: N-terminal polyhistidine and DsRed monomer fusion (pET32a); label: CyDye5-dUTP incorporated in the synthesized complementary strand; 3' TTTTT single-stranded linker to array surface; dsDNA, one strand shown
Outline: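 Transcription factors were made in E. coli BL21-CodonPlus as N-terminal fusions to a polyhistidine tag and DsRed, then purified on Ni–NTA. After primer extension with Cy5-dUTP and blocking with 2% BSA, a custom Agilent array was exposed for 1 h at 25 °C to 200 nM protein in PBS, 2% BSA, salmon testes DNA and 50 µM zinc acetate. Washed arrays were scanned on an Axon 4000B, and the binding signal is per-feature fluorescence intensity in arbitrary units.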

With “TCTTCCTCTCCATTCCATTGGCCATTCCATTCCATTCCACCGGAGTCACCTAGTGCAG” as the sequence, how does the binding signal read?
The binding signal was 9960 fluorescence intensity (a.u.).

For “GTGGAAGGGGTGGGCAATTAGCTAGAGCAGCAGGTGCTGTCGGAGTCACCTAGTGCAG”, which binding signal is on record?
The binding signal was 8830 fluorescence intensity (a.u.).

Which binding signal does the source give for “CACTTGCATATTGAGCTTTAGGAGTTAGTGAACATTAACTCGGAGTCACCTAGTGCAG” here?
Its binding signal is 8860 fluorescence intensity (a.u.).

For “TCGATTCCGCTTCGATATCCAACTCTATCTTGTCAAATTTCGGAGTCACCTAGTGCAG”, which binding signal is on record?
The binding signal was 8310 fluorescence intensity (a.u.).

For “CAAACACATACAGCAGCATCACCAGCTCAGTTAATTGCAACGGAGTCACCTAGTGCAG”, which binding signal is on record?
Its binding signal is 8250 fluorescence intensity (a.u.).

For “TCTCTACATAATGTGCCTTCACTGAACCAGTGTAATTTCTCGGAGTCACCTAGTGCAG”, which binding signal is on record?
The binding signal was 10400 fluorescence intensity (a.u.).

How did the binding signal turn out when “GTGTTTACTTTTCTACTTCTTCTGTCCTAAAAATATATATCGGAGTCACCTAGTGCAG” was run?
The binding signal was 9640 fluorescence intensity (a.u.).

With “TCATAGTGGTTTTCCCATCCAAATACCTGTTGGCCATTCGCGGAGTCACCTAGTGCAG” as the sequence, how does the binding signal read?
Its binding signal is 8380 fluorescence intensity (a.u.).

“CACGCGGGTGGGCGGGTCGGGTCTCCTCTCGCCGAAGCGCCGGAGTCACCTAGTGCAG” was tested. Which binding signal did it give?
The binding signal was 12400 fluorescence intensity (a.u.).

For “TGATGTGGATCTGCCAGCTACTTCTTCCGTGGTTTACTGCCGGAGTCACCTAGTGCAG”, which binding signal is on record?
Its binding signal is 8500 fluorescence intensity (a.u.).

With “CCCACCACTCTGCGCCGCCCCACCGTCGCTTGCCCTTTTGCGGAGTCACCTAGTGCAG” as the sequence, how does the binding signal read?
The binding signal was 10600 fluorescence intensity (a.u.).

For “GCTCCTTCTAGCTCCTGCTGCTTTGTTGTCTTCAGATGGACGGAGTCACCTAGTGCAG”, which binding signal is on record?
Its binding signal is 13200 fluorescence intensity (a.u.).

For “GCCACCGGAAGTACTCCTACGCCCTAACTTTACGTATACCCGGAGTCACCTAGTGCAG”, which binding signal is on record?
The binding signal was 8150 fluorescence intensity (a.u.).

With “TCACCATCTCGACTCAGCCAATCCATTTCTAAATTTTATACGGAGTCACCTAGTGCAG” as the sequence, how does the binding signal read?
Its binding signal is 8690 fluorescence intensity (a.u.).

How did the binding signal turn out when “TTAATCTTATAATTACGGTCATGTGGTTTTGTGAAATTTACGGAGTCACCTAGTGCAG” was run?
The binding signal was 8560 fluorescence intensity (a.u.).

With “GTACACCGAAAGAAACCAACTCGTGTCCATCCATCCGTCTCGGAGTCACCTAGTGCAG” as the sequence, how does the binding signal read?
Its binding signal is 8070 fluorescence intensity (a.u.).

Which binding signal does the source give for “ATGGGTTGTGCTGTTCTAGCTTCTATACGTGTCGAATCATCGGAGTCACCTAGTGCAG” here?
Its binding signal is 9100 fluorescence intensity (a.u.).

“TCTGCTTTGTTAGCTCTCGGAGTCTCGGTTCGTCCTCGCGCGGAGTCACCTAGTGCAG” was tested. Which binding signal did it give?
The binding signal was 8130 fluorescence intensity (a.u.).

With “TTTCGCCTACCGCACTCACTGCTCACAACCACCGAATCCTCGGAGTCACCTAGTGCAG” as the sequence, how does the binding signal read?
The binding signal was 9500 fluorescence intensity (a.u.).

With “CGTTGTTGTGTTTCTCTCCACTTCACTGTGCTGCTGTTCGCGGAGTCACCTAGTGCAG” as the sequence, how does the binding signal read?
Its binding signal is 9220 fluorescence intensity (a.u.).

How did the binding signal turn out when “TTAAAAAGTCAACGGCGTTATACATTAAAGAGATAATCCACGGAGTCACCTAGTGCAG” was run?
Its binding signal is 8670 fluorescence intensity (a.u.).

“TGGCACATTCTCATCGTATTTTCTTGTTGCTCTATGTATGCGGAGTCACCTAGTGCAG” was tested. Which binding signal did it give?
Its binding signal is 8860 fluorescence intensity (a.u.).

How did the binding signal turn out when “GTTCTGTATATATCTCTTTCCCTATCCCTCCGTATTAATCCGGAGTCACCTAGTGCAG” was run?
The binding signal was 9380 fluorescence intensity (a.u.).

Which binding signal does the source give for “CTTGCTGTTTGTATAACATCTTGTTTCTGTTTCAGGTATGCGGAGTCACCTAGTGCAG” here?
Its binding signal is 9280 fluorescence intensity (a.u.).

With “TTTCATCCGTATTGTTCCGCTTCCGGTTTTCTGATATTTTCGGAGTCACCTAGTGCAG” as the sequence, how does the binding signal read?
The binding signal was 14100 fluorescence intensity (a.u.).

Which binding signal does the source give for “GTAGTTAGTTAGGTTGTTAGTCGTGTGAGCTGCATGTATACGGAGTCACCTAGTGCAG” here?
The binding signal was 8700 fluorescence intensity (a.u.).

With “TGGTTCTTGCTCTTGTTCTTGCTGCTGCTGCTTTTGCTCTCGGAGTCACCTAGTGCAG” as the sequence, how does the binding signal read?
The binding signal was 9380 fluorescence intensity (a.u.).

With “GCTTTAAAATGGAGATGGGTATGGTAGGCAATCAATTTCCCGGAGTCACCTAGTGCAG” as the sequence, how does the binding signal read?
The binding signal was 10200 fluorescence intensity (a.u.).

For “TGTAATTGTTTTTTCGTCCACATTTAGTGCTCCATGTATACGGAGTCACCTAGTGCAG”, which binding signal is on record?
Its binding signal is 9780 fluorescence intensity (a.u.).

How did the binding signal turn out when “TTTTTTGGTTGTTGATATGATGTTCTTTTTTCCTCATTCTCGGAGTCACCTAGTGCAG” was run?
Its binding signal is 8990 fluorescence intensity (a.u.).

“TGATTTTTTTTTTGTTTCACAGTGCACAGACCAATGTTTCCGGAGTCACCTAGTGCAG” was tested. Which binding signal did it give?
Its binding signal is 8320 fluorescence intensity (a.u.).

How did the binding signal turn out when “GTCACCAGTGTCCGCCAATAATTTGCACATCTTCTCATATCGGAGTCACCTAGTGCAG” was run?
Its binding signal is 10300 fluorescence intensity (a.u.).

How did the binding signal turn out when “TCCTCTCCCACGTCCGCGCACCGCCGGCTCCCTCCGCCGCCGGAGTCACCTAGTGCAG” was run?
The binding signal was 9840 fluorescence intensity (a.u.).

With “TCCTTAATTCTATTTTTCATTTTCCTGTCTTTTAGCCTCACGGAGTCACCTAGTGCAG” as the sequence, how does the binding signal read?
Its binding signal is 9010 fluorescence intensity (a.u.).

Which binding signal does the source give for “ATCTGGATTTCTTTTGGTTAACTACCTGATCTCATCTCCCCGGAGTCACCTAGTGCAG” here?
The binding signal was 8960 fluorescence intensity (a.u.).

With “GCACTTATATCTTTTGTCGTTGGTTCTATATGCCCATTTTCGGAGTCACCTAGTGCAG” as the sequence, how does the binding signal read?
The binding signal was 15400 fluorescence intensity (a.u.).

How did the binding signal turn out when “CTTTCTTCTACTACCTTCGACCCAACTATACGTGACACATCGGAGTCACCTAGTGCAG” was run?
The binding signal was 9060 fluorescence intensity (a.u.).

With “GCTTCAATCCTAGCCATACATTTTTCTCACTCCATTTCATCGGAGTCACCTAGTGCAG” as the sequence, how does the binding signal read?
Its binding signal is 9400 fluorescence intensity (a.u.).

How did the binding signal turn out when “AGGGCTCCCGCCGACGCTCTCTCCTCGTCGCCGGATATTCCGGAGTCACCTAGTGCAG” was run?
The binding signal was 8390 fluorescence intensity (a.u.).

With “GCTCGTTTTTTCTTAAAATTTTCAACTTTTTTATCACATTCGGAGTCACCTAGTGCAG” as the sequence, how does the binding signal read?
The binding signal was 11400 fluorescence intensity (a.u.).

For “ACCGAACCAATCTCTTGCTTTTTAATCATTGCGCAGGTAGCGGAGTCACCTAGTGCAG”, which binding signal is on record?
Its binding signal is 8830 fluorescence intensity (a.u.).

“GCAACCGACCTCGCCCACCCGCACCGCACCACACCCACGCCGGAGTCACCTAGTGCAG” was tested. Which binding signal did it give?
Its binding signal is 9720 fluorescence intensity (a.u.).
